Experimental data: the supplement of paper PMC11237882
The list shows a part of the results. Values are worked out from sequencing counts and are noisy.

T1: Homer1 EVH1 domain
T1 chain: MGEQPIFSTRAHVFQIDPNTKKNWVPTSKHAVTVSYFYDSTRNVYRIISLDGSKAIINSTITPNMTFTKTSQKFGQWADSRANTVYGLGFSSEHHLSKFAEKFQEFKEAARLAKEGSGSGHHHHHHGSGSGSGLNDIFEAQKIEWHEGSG


Molecular target: T1, Homer1 EVH1 domain
Assay: enrichment score (AUC of log2 frequency ratio across FACS sorting rounds) (log2 AUC); higher = stronger enrichment for Homer1 EVH1 binding

Binder	enrichment score
LGLGVAVVSSLVNGSTFVLQKKGIVRAKRRGTSYLT	-1.03
RFLAWDKGLRVSDKYLLAMVIVYFSRAGLQSWQYQC	2.11
DHTNKGWSGDNSPGIEALCAIYITYAVIISVGILGN	3.06
DRGAEEPISVSQMFQPIILLILILVLFSSLSYTTIF	2.43
LKRPEVIATCGVALWLLLLGTAVCIHRRRRARVHLD	2.56
MLRNGSIVTEFILVGFQQSSTSTRALLFALFLALYS	0.756
TRYKGNGGVYGWDLKRKIISRGANFLTQILLRPGAS	-0.215
FPNGQTSYASSNKLTNYVWYFEGICFSGIMMLIVTT	0.176
SIHSVLFRKDPFLWRAALLYYTVYQANQISFCELFK	0.438
LGDLNIQQNSKYPILFLFLLITYVILTFVLLLNMLI	-0.444
VGFFFPLIMMLTWMVSVASMVRKLVYEQEIQIEEYM	-1.91
TEPRDSMQYVLYVRLAILVIEFIYAIVGIVWLTQYY	2.22
VPPFGENPWWVCLAAAIPALLVAILIFMDQQITAVI	3.81
SHGRIQRVQRRRVPSASPLIQKINRRSVLFHPYCWS	-0.442
VMAYDRYVAICNPLLYMVVVSRRLCLLLVSLTYLYG	-2
TSDMDIGKRKIMCVAGIGLVVLFFSWMLSIFRSKYH	0.195
PLCLYVVVGVSLLLAGIISLNRVRIEIPLEKENQDK	2.88
MAGRGFSWGPGHLNEDNARFLLLAALIVLYLLGGAA	3.74
LGILEGIGILAVITNAFVIAITSDYIPRFVYEYKYG	2.96
NYVFKNALRLGTFSAVLVTYAASALLHGFSFHLAAV	0.721
IAQGPASLYYYWVPLLTVIFGSYLIAHGFFSVYAMC	2.42
KKFDTGDGMFLQWVLCAAIWLVALVVNLILHCPKFW	-0.0704
NYLQIDEEEYGGTWELTKEGFMTSFALFMVIWIIFY	4.26
ACLAGIVFILSGLCSMTGCSLYANKITTEFFDPLFV	0.524
AIQNVSFDISIVSLISLIWSLAILLLSKKYKQLPHM	2.68
LFLGIITAAVLGGFKDMNPTLPALNCSVENTHPTVS	0.138
SDIEYLDFYKPVVWFWILVGLAYFAAVLSMIGDWLR	4.18
FTGFPQLQDGSLLYFFPLLFIYTFIIIDNLLIFSAV	-1.54
